Structures can show the parent of a compound that is named as a salt. Some of the results follow. The calls rarely recur for the same compound in another form.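 Kinases, fused to nanoluciferase, were expressed in K562 cells; luminescence was measured every 4 h from 2 to 18 h as percent of control (DMSO = 100%, positive control = 0%). A time point is decreased if signal falls significantly (2 sigma). Hits were called by the authors by a rule that is not shown; the count of time points alone does not decide it.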
Columns and labels:
Experiment in all cases: kinase-Nluc reporter destabilization hit call (1 = scored as downregulated) (binary); higher = compound decreases kinase abundance
Details in all cases: K562; 2-18 h
MAPK1 = MAPK1 (UniProt P28482)
MAPK4 = MAPK4 (UniProt P31152)
MAPKAPK2 = MAPKAPK2 (UniProt P49137)
MKNK1 = MKNK1 (UniProt Q9BUB5)
NTRK2 = NTRK2 (UniProt Q16620)
NTRK3 = NTRK3 (UniProt Q16288)
PAK4 = PAK4 (UniProt O96013)
PBK = PBK (UniProt Q96KB5)
PDGFRB = PDGFRB (UniProt P09619)
PDK1 = PDK1 (UniProt Q15118)
PDPK1 = PDPK1 (UniProt O15530)
PIK4CA = PIK4CA (UniProt P42356)
PIK4CB = PIK4CB (UniProt Q9UBF8)
PLK1 = PLK1 (UniProt P53350)
PRKAA1 = PRKAA1 (UniProt Q13131)
PRKCA = PRKCA (UniProt P17252)
PTK2 = PTK2 (UniProt Q05397)
PTK2B = PTK2B (UniProt Q14289)
RAF1 = RAF1 (UniProt P04049)
[1] = biological target: RAF1_S257L (clone: RAF1_mut) (UniProt P04049)

Amino acid sequences for entries named in this document (tags omitted). A change or cut given only in a name is not applied to a line headed by its entry.
UniProt Q9BUB5: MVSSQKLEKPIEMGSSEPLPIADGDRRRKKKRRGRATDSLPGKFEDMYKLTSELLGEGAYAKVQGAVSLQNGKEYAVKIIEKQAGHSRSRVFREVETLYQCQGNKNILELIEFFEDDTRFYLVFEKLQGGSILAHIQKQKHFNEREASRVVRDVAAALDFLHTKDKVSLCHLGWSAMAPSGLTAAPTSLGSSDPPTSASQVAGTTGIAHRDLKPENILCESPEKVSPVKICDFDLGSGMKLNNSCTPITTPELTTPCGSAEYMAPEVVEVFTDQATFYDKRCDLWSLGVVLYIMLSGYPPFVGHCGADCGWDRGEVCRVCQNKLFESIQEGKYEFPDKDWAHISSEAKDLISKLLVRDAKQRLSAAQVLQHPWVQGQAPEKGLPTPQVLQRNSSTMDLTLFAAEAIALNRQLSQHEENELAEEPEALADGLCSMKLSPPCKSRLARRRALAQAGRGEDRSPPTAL
UniProt Q16620, whole entry, looked up: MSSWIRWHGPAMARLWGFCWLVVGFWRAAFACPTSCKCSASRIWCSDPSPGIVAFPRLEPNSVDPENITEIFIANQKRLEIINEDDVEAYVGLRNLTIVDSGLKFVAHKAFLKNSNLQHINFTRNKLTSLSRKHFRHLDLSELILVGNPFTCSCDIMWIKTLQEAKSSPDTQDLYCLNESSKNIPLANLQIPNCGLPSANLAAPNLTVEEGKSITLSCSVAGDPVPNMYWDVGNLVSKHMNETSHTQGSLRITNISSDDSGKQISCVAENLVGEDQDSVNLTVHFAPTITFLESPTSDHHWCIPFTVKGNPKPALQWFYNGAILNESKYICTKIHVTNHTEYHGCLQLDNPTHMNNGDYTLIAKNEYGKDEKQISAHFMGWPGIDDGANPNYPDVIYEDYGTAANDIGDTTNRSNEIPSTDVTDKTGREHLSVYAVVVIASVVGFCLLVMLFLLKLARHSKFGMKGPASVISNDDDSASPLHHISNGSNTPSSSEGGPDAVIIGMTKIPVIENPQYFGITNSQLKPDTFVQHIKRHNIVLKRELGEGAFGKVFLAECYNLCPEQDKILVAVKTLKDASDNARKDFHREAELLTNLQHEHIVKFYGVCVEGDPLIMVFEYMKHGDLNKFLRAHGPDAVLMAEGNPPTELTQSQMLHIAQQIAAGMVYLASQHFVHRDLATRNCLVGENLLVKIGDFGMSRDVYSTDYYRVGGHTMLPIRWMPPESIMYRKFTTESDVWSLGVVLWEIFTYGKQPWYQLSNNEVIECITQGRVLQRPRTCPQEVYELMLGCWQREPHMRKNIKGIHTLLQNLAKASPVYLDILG
UniProt Q96KB5: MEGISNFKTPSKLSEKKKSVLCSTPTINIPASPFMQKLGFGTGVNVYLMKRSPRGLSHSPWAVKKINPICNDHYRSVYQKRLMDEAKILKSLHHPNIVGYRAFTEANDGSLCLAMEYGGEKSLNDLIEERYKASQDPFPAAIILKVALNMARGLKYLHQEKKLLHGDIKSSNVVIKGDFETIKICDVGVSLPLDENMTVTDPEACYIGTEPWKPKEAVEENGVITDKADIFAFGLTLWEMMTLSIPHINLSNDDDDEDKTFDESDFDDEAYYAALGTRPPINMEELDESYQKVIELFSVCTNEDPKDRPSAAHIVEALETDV
UniProt P09619, whole entry: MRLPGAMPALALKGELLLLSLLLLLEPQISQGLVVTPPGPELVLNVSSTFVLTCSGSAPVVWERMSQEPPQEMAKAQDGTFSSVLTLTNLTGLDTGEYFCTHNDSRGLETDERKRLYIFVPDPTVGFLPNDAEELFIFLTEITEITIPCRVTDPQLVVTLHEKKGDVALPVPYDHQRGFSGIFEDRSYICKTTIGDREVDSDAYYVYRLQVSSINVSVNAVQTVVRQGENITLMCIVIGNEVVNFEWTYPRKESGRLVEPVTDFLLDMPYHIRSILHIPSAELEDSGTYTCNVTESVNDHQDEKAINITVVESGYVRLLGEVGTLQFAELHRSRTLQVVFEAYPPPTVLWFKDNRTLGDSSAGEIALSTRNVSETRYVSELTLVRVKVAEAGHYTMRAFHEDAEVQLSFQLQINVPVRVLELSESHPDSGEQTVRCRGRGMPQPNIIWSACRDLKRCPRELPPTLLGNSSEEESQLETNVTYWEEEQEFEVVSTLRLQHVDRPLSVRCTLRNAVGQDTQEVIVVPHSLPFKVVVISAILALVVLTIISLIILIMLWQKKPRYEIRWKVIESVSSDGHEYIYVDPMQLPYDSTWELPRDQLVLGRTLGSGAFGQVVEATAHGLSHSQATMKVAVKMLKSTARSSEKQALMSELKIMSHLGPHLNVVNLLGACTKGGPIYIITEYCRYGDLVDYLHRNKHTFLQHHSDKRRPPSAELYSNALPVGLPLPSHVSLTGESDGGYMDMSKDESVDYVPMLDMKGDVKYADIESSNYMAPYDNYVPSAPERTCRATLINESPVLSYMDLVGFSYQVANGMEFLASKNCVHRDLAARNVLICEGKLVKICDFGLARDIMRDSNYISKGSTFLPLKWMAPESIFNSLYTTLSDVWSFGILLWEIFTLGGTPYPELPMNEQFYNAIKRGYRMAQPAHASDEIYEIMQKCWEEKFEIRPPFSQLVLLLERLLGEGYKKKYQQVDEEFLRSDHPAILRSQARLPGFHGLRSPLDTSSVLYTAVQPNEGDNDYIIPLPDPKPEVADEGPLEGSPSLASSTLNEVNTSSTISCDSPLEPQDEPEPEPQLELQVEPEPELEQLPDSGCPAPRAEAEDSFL
UniProt O15530: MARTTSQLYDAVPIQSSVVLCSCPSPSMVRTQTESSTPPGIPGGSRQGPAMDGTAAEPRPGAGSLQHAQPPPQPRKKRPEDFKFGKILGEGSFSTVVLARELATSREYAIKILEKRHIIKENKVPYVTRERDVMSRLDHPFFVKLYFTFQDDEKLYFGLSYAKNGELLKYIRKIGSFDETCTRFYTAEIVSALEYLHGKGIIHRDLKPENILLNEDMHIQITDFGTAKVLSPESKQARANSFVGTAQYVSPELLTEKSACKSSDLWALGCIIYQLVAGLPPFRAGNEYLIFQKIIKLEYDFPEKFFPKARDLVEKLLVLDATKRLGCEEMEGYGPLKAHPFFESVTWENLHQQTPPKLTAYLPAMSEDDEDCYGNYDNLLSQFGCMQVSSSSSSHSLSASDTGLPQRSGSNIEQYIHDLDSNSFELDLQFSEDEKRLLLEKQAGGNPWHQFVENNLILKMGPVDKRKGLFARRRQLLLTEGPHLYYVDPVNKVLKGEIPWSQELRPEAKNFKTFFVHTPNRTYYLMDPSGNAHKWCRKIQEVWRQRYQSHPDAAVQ
UniProt P42356, whole entry, looked up: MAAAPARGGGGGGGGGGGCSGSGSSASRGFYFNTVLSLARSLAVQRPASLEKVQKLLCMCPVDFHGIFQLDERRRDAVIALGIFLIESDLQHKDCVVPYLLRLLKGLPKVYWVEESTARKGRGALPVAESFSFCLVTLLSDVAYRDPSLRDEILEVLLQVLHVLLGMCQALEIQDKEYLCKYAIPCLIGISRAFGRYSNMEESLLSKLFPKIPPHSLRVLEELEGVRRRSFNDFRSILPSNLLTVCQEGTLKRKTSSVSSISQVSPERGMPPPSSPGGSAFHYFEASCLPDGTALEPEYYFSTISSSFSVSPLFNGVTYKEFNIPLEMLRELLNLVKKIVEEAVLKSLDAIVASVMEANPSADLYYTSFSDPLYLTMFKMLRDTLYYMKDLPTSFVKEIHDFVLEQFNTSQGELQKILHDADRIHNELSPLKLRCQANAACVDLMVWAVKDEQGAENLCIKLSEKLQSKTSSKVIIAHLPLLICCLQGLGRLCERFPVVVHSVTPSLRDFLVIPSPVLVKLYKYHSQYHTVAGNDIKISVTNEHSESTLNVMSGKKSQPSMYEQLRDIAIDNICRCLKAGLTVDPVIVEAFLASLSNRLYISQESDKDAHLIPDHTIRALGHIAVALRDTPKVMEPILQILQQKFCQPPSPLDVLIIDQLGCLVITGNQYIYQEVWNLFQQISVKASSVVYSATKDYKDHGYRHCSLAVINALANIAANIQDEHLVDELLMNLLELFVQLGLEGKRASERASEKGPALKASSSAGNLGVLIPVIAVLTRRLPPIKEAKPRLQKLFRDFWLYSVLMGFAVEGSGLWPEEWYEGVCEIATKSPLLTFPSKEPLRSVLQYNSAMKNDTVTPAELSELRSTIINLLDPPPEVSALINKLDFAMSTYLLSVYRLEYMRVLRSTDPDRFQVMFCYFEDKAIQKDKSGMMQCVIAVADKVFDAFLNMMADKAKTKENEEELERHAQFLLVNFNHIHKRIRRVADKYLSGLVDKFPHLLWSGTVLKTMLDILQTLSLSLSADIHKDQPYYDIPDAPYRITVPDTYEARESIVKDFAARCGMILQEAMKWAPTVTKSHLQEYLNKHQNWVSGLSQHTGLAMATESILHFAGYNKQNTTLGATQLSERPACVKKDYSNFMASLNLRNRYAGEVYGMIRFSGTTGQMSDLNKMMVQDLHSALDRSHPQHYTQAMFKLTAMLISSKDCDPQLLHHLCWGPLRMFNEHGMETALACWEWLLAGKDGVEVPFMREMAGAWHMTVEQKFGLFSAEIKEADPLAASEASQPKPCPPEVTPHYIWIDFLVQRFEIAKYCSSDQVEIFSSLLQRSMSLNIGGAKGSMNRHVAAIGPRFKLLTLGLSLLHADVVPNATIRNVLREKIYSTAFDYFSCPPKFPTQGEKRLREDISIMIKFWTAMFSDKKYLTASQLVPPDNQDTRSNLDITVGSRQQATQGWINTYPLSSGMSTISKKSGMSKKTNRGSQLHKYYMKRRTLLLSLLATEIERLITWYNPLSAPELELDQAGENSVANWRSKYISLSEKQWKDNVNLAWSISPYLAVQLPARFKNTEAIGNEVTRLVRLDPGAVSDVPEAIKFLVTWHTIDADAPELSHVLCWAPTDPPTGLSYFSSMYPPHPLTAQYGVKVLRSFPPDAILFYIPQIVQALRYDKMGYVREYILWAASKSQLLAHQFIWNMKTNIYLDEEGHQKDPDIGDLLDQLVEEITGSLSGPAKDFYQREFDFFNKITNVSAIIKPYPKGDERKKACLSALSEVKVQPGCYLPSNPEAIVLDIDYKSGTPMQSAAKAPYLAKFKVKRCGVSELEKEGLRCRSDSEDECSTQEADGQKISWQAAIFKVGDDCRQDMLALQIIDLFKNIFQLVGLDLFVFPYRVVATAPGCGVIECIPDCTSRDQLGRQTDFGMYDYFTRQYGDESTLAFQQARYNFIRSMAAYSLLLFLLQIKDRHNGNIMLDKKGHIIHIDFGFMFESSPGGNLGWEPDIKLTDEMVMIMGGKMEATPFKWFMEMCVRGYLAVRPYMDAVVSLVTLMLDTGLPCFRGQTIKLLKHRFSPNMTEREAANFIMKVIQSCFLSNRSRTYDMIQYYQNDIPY
UniProt P53350, whole entry: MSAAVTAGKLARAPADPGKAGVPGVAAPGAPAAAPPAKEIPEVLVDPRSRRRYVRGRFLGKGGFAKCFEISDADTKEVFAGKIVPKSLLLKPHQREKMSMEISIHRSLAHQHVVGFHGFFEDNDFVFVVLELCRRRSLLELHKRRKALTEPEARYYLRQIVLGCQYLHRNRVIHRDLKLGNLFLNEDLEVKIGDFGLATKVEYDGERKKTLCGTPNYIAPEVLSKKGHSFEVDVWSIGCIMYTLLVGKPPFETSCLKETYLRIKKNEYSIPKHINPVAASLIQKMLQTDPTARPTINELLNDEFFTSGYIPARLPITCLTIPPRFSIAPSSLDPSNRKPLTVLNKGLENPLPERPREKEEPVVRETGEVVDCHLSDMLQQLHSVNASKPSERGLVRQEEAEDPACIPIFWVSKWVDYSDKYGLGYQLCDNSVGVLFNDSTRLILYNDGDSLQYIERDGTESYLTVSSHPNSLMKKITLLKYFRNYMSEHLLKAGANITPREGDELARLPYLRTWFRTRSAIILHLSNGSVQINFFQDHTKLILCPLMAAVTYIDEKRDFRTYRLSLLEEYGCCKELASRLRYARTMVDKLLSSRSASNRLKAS
UniProt Q13131: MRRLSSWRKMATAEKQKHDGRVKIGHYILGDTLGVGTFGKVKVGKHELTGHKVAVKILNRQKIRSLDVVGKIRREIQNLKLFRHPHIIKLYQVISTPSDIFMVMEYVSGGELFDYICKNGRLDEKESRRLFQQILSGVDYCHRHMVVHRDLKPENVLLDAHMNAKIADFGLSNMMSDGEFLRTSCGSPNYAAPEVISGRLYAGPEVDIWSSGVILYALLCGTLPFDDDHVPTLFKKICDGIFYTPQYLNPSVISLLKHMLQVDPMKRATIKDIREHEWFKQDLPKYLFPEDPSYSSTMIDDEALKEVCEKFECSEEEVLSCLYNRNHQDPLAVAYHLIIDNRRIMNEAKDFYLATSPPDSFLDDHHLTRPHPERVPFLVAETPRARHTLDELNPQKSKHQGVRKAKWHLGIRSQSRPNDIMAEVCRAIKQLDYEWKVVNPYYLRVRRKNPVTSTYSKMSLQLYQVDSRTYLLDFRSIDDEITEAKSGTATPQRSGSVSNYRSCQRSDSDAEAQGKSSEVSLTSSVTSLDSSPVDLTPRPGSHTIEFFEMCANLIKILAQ

Measured: kinase-Nluc reporter destabilization hit call

COc1cc(S(C)(=O)=O)ccc1Nc1nc2ccc(-c3ccc(NC(=O)[C@H](C)c4ccc(F)cc4)cc3)cn2n1 [Empesertib] (10 µM)
inactive: MAPK1 = 0 | MAPK4 = 0 | MAPKAPK2 = 0 | MKNK1 = 0 | NTRK2 = 0 | NTRK3 = 0 | PAK4 = 0 | PBK 0 | PDGFRB 0 | PDK1 = 0 | PDPK1 = 0 | PIK4CA 0 | PIK4CB 0 | PLK1 = 0 | PRKAA1 = 0 | PRKCA 0 | PTK2 = 0 | PTK2B 0 | RAF1 = 0 | [1] 0

CC1CN(C(=O)Nc2ccc(Cl)c(Cl)c2)C(=Nc2ccc(F)cc2)S1 (stereo not given) (10 µM)
inactive: MAPK1 = 0 | MAPK4 = 0 | MAPKAPK2 = 0 | MKNK1 = 0 | NTRK2 = 0 | NTRK3 = 0 | PAK4 = 0 | PBK 0 | PDGFRB 0 | PDK1 = 0 | PDPK1 = 0 | PIK4CA 0 | PIK4CB 0 | PLK1 = 0 | PRKAA1 = 0 | PRKCA 0 | PTK2 = 0 | PTK2B 0 | RAF1 = 0 | [1] 0

CCOc1ccc(C(=O)Nc2ncc([N+](=O)[O-])s2)cc1 (10 µM)
inactive: MAPK1 = 0 | MAPK4 = 0 | MAPKAPK2 = 0 | MKNK1 = 0 | NTRK2 = 0 | NTRK3 = 0 | PAK4 = 0 | PBK 0 | PDGFRB 0 | PDK1 = 0 | PDPK1 = 0 | PIK4CA 0 | PIK4CB 0 | PLK1 = 0 | PRKAA1 = 0 | PRKCA 0 | PTK2 = 0 | PTK2B 0 | RAF1 = 0 | [1] 0

Cc1ccc(S(=O)(=O)/C=C/C#N)cc1 (10 µM)
inactive: MAPK1 = 0 | MAPK4 = 0 | MAPKAPK2 = 0 | MKNK1 = 0 | NTRK2 = 0 | NTRK3 = 0 | PAK4 = 0 | PBK 0 | PDGFRB 0 | PDK1 = 0 | PDPK1 = 0 | PIK4CA 0 | PIK4CB 0 | PLK1 = 0 | PRKAA1 = 0 | PRKCA 0 | PTK2 = 0 | PTK2B 0 | RAF1 = 0 | [1] 0

COC1(C(=O)N2Cc3nc(Cl)nc(N[C@H](C)c4cc(N)cc(C(F)(F)F)c4)c3C2)CCOCC1 (10 µM)
inactive: MAPK1 = 0 | MAPK4 = 0 | MAPKAPK2 = 0 | MKNK1 = 0 | NTRK2 = 0 | NTRK3 = 0 | PAK4 = 0 | PBK 0 | PDGFRB 0 | PDK1 = 0 | PDPK1 = 0 | PIK4CA 0 | PIK4CB 0 | PLK1 = 0 | PRKAA1 = 0 | PRKCA 0 | PTK2 = 0 | PTK2B 0 | RAF1 = 0 | [1] 0

Retrieved by structure from the list above, 2 records:
COC1(C(=O)N2Cc3nc(Cl)nc(N[C@H](C)c4cc(N)cc(C(F)(F)F)c4)c3C2)CCOCC1 (10 µM)
inactive: MAPK1 = 0 | MAPK4 = 0 | MAPKAPK2 = 0 | MKNK1 = 0 | NTRK2 = 0 | NTRK3 = 0 | PAK4 = 0 | PBK 0 | PDGFRB 0 | PDK1 = 0 | PDPK1 = 0 | PIK4CA 0 | PIK4CB 0 | PLK1 = 0 | PRKAA1 = 0 | PRKCA 0 | PTK2 = 0 | PTK2B 0 | RAF1 = 0 | [1] 0

CCOc1ccc(C(=O)Nc2ncc([N+](=O)[O-])s2)cc1 (10 µM)
inactive: MAPK1 = 0 | MAPK4 = 0 | MAPKAPK2 = 0 | MKNK1 = 0 | NTRK2 = 0 | NTRK3 = 0 | PAK4 = 0 | PBK 0 | PDGFRB 0 | PDK1 = 0 | PDPK1 = 0 | PIK4CA 0 | PIK4CB 0 | PLK1 = 0 | PRKAA1 = 0 | PRKCA 0 | PTK2 = 0 | PTK2B 0 | RAF1 = 0 | [1] 0

(list continues)

Cc1ccc(Nc2cc(-c3cccc(N4C(=O)c5ccccc5C4=O)c3)ncn2)cc1NS(C)(=O)=O (10 µM)
inactive: MAPK1 = 0 | MAPK4 = 0 | MAPKAPK2 = 0 | MKNK1 = 0 | NTRK2 = 0 | NTRK3 = 0 | PAK4 = 0 | PBK 0 | PDGFRB 0 | PDK1 = 0 | PDPK1 = 0 | PIK4CA 0 | PIK4CB 0 | PLK1 = 0 | PRKAA1 = 0 | PRKCA 0 | PTK2 = 0 | PTK2B 0 | RAF1 = 0 | [1] 0

Cc1c(CN2CCN(C(=O)[C@H](C)O)CC2)sc2c(N3CCOCC3)nc(-c3cnc(N)nc3)nc12 [Apitolisib] (10 µM)
inactive: MAPK1 = 0 | MAPK4 = 0 | MAPKAPK2 = 0 | MKNK1 = 0 | NTRK2 = 0 | NTRK3 = 0 | PAK4 = 0 | PBK 0 | PDGFRB 0 | PDK1 = 0 | PDPK1 = 0 | PIK4CA 0 | PIK4CB 0 | PLK1 = 0 | PRKAA1 = 0 | PRKCA 0 | PTK2 = 0 | PTK2B 0 | RAF1 = 0 | [1] 0

CC(C)CC1(O)CCN(C(=O)c2ccc(NS(=O)(=O)c3cccc4nccnc34)cc2)CC1 (10 µM)
inactive: MAPK1 = 0 | MAPK4 = 0 | MAPKAPK2 = 0 | MKNK1 = 0 | NTRK2 = 0 | NTRK3 = 0 | PAK4 = 0 | PBK 0 | PDGFRB 0 | PDK1 = 0 | PDPK1 = 0 | PIK4CA 0 | PIK4CB 0 | PLK1 = 0 | PRKAA1 = 0 | PRKCA 0 | PTK2 = 0 | PTK2B 0 | RAF1 = 0 | [1] 0

CC(C)=CC[C@H](O)C1=CC(=O)c2c(O)ccc(O)c2C1=O [(-)-Alkannin] (2.5 µM)
inactive: MAPK1 = 0 | MAPK4 = 0 | MAPKAPK2 = 0 | MKNK1 = 0 | NTRK2 = 0 | NTRK3 = 0 | PAK4 = 0 | PBK 0 | PDGFRB 0 | PDK1 = 0 | PDPK1 = 0 | PIK4CA 0 | PIK4CB 0 | PLK1 = 0 | PRKAA1 = 0 | PRKCA 0 | PTK2 = 0 | PTK2B 0 | RAF1 = 0 | [1] 0

CC(C)CN(CC(=O)N1CCN(CC(OCc2ccc3ccccc3c2)c2ccc(Cl)cc2Cl)CC1)CC(C)C (stereo not given) [LYN-1604 (dihydrochloride)] (2.5 µM)
inactive: MAPK1 = 0 | MAPK4 = 0 | MAPKAPK2 = 0 | MKNK1 = 0 | NTRK2 = 0 | NTRK3 = 0 | PAK4 = 0 | PBK 0 | PDGFRB 0 | PDK1 = 0 | PDPK1 = 0 | PIK4CA 0 | PIK4CB 0 | PLK1 = 0 | PRKAA1 = 0 | PRKCA 0 | PTK2 = 0 | PTK2B 0 | RAF1 = 0 | [1] 0

COc1ccc(C(=O)Nc2sc3c(c2C(N)=O)CCCC3)cc1OC (10 µM)
inactive: MAPK1 = 0 | MAPK4 = 0 | MAPKAPK2 = 0 | MKNK1 = 0 | NTRK2 = 0 | NTRK3 = 0 | PAK4 = 0 | PBK 0 | PDGFRB 0 | PDK1 = 0 | PDPK1 = 0 | PIK4CA 0 | PIK4CB 0 | PLK1 = 0 | PRKAA1 = 0 | PRKCA 0 | PTK2 = 0 | PTK2B 0 | RAF1 = 0 | [1] 0

Cc1noc(C)c1-c1ccc(-c2cc(C(N)=O)c(NC(N)=O)s2)c(O[C@H]2CCNC2)c1 (10 µM)
inactive: MAPK1 = 0 | MAPK4 = 0 | MAPKAPK2 = 0 | MKNK1 = 0 | NTRK2 = 0 | NTRK3 = 0 | PAK4 = 0 | PBK 0 | PDGFRB 0 | PDK1 = 0 | PDPK1 = 0 | PIK4CA 0 | PIK4CB 0 | PLK1 = 0 | PRKAA1 = 0 | PRKCA 0 | PTK2 = 0 | PTK2B 0 | RAF1 = 0 | [1] 0

O=C(Nc1nc2ccccc2[nH]1)c1cccc(-n2cccc2)c1 (10 µM)
inactive: MAPK1 = 0 | MAPK4 = 0 | MAPKAPK2 = 0 | MKNK1 = 0 | NTRK2 = 0 | NTRK3 = 0 | PAK4 = 0 | PBK 0 | PDGFRB 0 | PDK1 = 0 | PDPK1 = 0 | PIK4CA 0 | PIK4CB 0 | PLK1 = 0 | PRKAA1 = 0 | PRKCA 0 | PTK2 = 0 | PTK2B 0 | RAF1 = 0 | [1] 0

Cc1cc([C@H](C)Nc2ccccc2)c2oc(N3CCOCC3)cc(=O)c2c1 (10 µM)
inactive: MAPK1 = 0 | MAPK4 = 0 | MAPKAPK2 = 0 | MKNK1 = 0 | NTRK2 = 0 | NTRK3 = 0 | PAK4 = 0 | PBK 0 | PDGFRB 0 | PDK1 = 0 | PDPK1 = 0 | PIK4CA 0 | PIK4CB 0 | PLK1 = 0 | PRKAA1 = 0 | PRKCA 0 | PTK2 = 0 | PTK2B 0 | RAF1 = 0 | [1] 0

C=C(C)C(=O)Nc1cccc(-c2ncnc3[nH]cc(C(=O)OCC)c23)c1 (10 µM)
inactive: MAPK1 = 0 | MAPK4 = 0 | MAPKAPK2 = 0 | MKNK1 = 0 | NTRK2 = 0 | NTRK3 = 0 | PAK4 = 0 | PBK 0 | PDGFRB 0 | PDK1 = 0 | PDPK1 = 0 | PIK4CA 0 | PIK4CB 0 | PLK1 = 0 | PRKAA1 = 0 | PRKCA 0 | PTK2 = 0 | PTK2B 0 | RAF1 = 0 | [1] 0

CCN(CC)S(=O)(=O)c1ccc(OC)c(N2CCN(C(=O)c3ccc(F)cc3C(F)(F)F)CC2)c1 (10 µM)
inactive: MAPK1 = 0 | MAPK4 = 0 | MAPKAPK2 = 0 | MKNK1 = 0 | NTRK2 = 0 | NTRK3 = 0 | PAK4 = 0 | PBK 0 | PDGFRB 0 | PDK1 = 0 | PDPK1 = 0 | PIK4CA 0 | PIK4CB 0 | PLK1 = 0 | PRKAA1 = 0 | PRKCA 0 | PTK2 = 0 | PTK2B 0 | RAF1 = 0 | [1] 0
